We go through one substance from EP2294930A2.

Amino acid sequences for entries named in this document (tags omitted). Residues count along the entry.
UniProt P00772, residues 27-266: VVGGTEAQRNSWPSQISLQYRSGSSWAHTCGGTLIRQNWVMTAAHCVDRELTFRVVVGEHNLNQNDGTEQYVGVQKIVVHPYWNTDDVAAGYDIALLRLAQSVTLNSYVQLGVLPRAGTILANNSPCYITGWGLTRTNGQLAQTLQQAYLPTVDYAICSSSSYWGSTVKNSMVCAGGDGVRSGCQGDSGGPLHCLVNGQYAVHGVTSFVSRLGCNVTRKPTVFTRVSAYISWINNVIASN
UniProt P01009, residues 25-418: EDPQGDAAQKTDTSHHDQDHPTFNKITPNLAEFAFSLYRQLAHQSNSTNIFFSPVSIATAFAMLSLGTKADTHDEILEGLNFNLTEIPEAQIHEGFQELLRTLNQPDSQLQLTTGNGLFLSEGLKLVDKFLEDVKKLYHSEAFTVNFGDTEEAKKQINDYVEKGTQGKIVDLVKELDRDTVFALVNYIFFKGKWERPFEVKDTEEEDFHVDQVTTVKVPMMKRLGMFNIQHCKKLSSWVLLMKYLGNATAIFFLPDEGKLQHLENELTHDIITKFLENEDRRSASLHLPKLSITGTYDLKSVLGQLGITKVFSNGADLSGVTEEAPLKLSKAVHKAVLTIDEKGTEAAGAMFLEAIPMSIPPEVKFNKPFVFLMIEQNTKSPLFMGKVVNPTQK

Results are given in words; binding and its absence hold for the method and conditions named. Some results given as binding are weak or reduced against the parent protein; the word gives no strength.

The target of assay [1] is porcine pancreatic elastase (porcine) (UniProt P00772). Description: band shift assay: AAT sample with 100 ng PPE, 37 C, 15 min; covalent-linked complex seen by SDS-PAGE and Western blot. For orientation: Immunoblotting shows a protein as a band on a membrane.
Assay [2] shares this target. Description: band shift assay with equal moles of PPE, 37 C, 15 min; Coomassie stain and Western blot.

As for “recombinant human alpha-1-antitrypsin produced in transgenic rice (from UniProt P01009 25-418)”, the binding result in assay [1] and in assay [2] was “binds” throughout.
